Laboratory results from patent US20160176943A1 (INSERM INSITITUT NATIONAL DE LA SANTE ET DE LA RECHERCHE …, published 2016).
No constants are given. Whether binding was seen depends on the method and setting. Some results given as binding are weak or reduced against the parent protein; the word gives no strength.

Protein sequences, listed by entry. Tags and fused reporters are not part of them. Lines headed by an entry give the natural chain unless they say otherwise; changes in a name come on top. Residues count along the entry.
UniProt Q29983: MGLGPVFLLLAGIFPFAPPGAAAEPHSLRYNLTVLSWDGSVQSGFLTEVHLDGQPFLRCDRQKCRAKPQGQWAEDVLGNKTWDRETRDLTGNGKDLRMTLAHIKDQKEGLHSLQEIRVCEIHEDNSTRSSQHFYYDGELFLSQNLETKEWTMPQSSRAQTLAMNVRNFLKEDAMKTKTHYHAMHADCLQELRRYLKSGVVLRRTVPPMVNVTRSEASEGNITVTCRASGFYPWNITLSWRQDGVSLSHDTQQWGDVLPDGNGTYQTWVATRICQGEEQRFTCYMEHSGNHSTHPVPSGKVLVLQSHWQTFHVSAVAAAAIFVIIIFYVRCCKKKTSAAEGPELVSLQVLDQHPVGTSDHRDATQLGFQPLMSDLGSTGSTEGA
UniProt P26718, residues 78-216: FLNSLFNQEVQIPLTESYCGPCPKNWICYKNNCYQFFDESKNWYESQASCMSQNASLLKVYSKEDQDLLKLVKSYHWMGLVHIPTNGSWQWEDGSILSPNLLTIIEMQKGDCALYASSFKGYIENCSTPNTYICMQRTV

Columns and labels:
[1] = molecular target: T1, MICA-B2 isoform expressed on transfected cells (human) (UniProt Q29983); assay: summary of the experiments on transfectants
T1 sequence: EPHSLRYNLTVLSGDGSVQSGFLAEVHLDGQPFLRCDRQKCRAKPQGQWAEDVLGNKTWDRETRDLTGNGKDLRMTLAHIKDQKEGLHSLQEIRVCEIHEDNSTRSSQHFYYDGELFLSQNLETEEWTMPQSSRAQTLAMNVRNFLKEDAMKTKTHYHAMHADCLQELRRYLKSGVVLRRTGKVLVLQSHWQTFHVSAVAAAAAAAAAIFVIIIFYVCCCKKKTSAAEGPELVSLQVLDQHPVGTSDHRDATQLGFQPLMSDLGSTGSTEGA

[2] = molecular target: T1, MICA-B2 isoform expressed on transfected cells (human); assay: NKG2D-Fc on COS transfectants (discussion of Example 1)
[3] = molecular target: T1, MICA-B2 isoform expressed on transfected cells (human); assay: facs analysis and immunocytology on transfected COS cells
[4] = molecular target: T1, MICA-B2 isoform expressed on transfected cells (human); assay: NKG2D-Fc on COS transfectants, anti-IgG FITC, fluorescence and confocal microscopy

Measured: binding

recombinant NKG2D-Fc chimeric protein (from UniProt P26718 78-216) (Fc fusion)
binds: [1] | [2] | [3] | [4]
